According to paper PMC5466602:
These are yes or no findings as the source states them, for the method shown. In cells and extracts the contact can be indirect. Some results given as binding are weak or reduced against the parent protein; the word gives no strength. Tags and fused reporters may be left off the sequences shown.

T1: Utp21p-TAP (S. cerevisiae) (UniProt Q06078)
T1 sequence: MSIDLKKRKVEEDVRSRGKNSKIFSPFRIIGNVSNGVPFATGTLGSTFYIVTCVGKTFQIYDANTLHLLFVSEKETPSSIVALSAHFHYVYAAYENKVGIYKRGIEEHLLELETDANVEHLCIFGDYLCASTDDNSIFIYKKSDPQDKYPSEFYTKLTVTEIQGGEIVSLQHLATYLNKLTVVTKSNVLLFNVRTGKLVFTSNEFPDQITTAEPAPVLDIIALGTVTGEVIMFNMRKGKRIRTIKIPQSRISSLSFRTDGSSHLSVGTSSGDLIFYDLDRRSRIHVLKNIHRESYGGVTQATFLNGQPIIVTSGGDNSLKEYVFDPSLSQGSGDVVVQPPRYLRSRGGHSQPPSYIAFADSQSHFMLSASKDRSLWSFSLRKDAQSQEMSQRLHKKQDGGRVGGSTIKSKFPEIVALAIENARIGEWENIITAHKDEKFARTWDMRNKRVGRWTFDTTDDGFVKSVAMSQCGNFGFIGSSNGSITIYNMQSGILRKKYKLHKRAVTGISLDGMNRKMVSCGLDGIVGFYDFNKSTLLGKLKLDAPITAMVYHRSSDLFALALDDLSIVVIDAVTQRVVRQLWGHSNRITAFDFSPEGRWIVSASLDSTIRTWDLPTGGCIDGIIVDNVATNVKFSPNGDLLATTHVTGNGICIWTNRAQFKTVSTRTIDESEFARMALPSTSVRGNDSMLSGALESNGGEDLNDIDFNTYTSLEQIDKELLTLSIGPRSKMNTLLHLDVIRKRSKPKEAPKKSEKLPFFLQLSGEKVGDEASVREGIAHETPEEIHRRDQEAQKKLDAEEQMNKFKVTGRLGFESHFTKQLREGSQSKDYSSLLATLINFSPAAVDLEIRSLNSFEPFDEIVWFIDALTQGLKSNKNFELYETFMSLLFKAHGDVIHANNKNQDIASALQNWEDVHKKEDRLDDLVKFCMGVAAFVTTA

B1: Pwp2p (wild type, plasmid-encoded, untagged) (protein, UniProt P25635 1-923)
chain: MKSDFKFSNLLGTVYRQGNITFSDDGKQLLSPVGNRVSVFDLINNKSFTFEYEHRKNIAAIDLNKQGTLLISIDEDGRAILVNFKARNVLHHFNFKEKCSAVKFSPDGRLFALASGRFLQIWKTPDVNKDRQFAPFVRHRVHAGHFQDITSLTWSQDSRFILTTSKDLSAKIWSVDSEEKNLAATTFNGHRDYVMGAFFSHDQEKIYTVSKDGAVFVWEFTKRPSDDDDNESEDDDKQEEVDISKYSWRITKKHFFYANQAKVKCVTFHPATRLLAVGFTSGEFRLYDLPDFTLIQQLSMGQNPVNTVSVNQTGEWLAFGSSKLGQLLVYEWQSESYILKQQGHFDSTNSLAYSPDGSRVVTASEDGKIKVWDITSGFCLATFEEHTSSVTAVQFAKRGQVMFSSSLDGTVRAWDLIRYRNFRTFTGTERIQFNCLAVDPSGEVVCAGSLDNFDIHVWSVQTGQLLDALSGHEGPVSCLSFSQENSVLASASWDKTIRIWSIFGRSQQVEPIEVYSDVLALSMRPDGKEVAVSTLKGQISIFNIEDAKQVGNIDCRKDIISGRFNQDRFTAKNSERSKFFTTIHYSFDGMAIVAGGNNNSICLYDVPNEVLLKRFIVSRNMALNGTLEFLNSKKMTEAGSLDLIDDAGENSDLEDRIDNSLPGSQRGGDLSTRKMRPEVRVTSVQFSPTANAFAAASTEGLLIYSTNDTILFDPFDLDVDVTPHSTVEALREKQFLNALVMAFRLNEEYLINKVYEAIPIKEIPLVASNIPAIYLPRILKFIGDFAIESQHIEFNLIWIKALLSASGGYINEHKYLFSTAMRSIQRFIVRVAKEVVNTTTDNKYTYRFLVSTDGSMEDGAADDDEVLLKDDADEDNEENEENDVVMESDDEEGWIGFNGKDNKLPLSNENDSSDEEENEKELP
B2: Pwp2p-ΔC32 (domain or fragment, UniProt P25635 1-891)
chain: MKSDFKFSNLLGTVYRQGNITFSDDGKQLLSPVGNRVSVFDLINNKSFTFEYEHRKNIAAIDLNKQGTLLISIDEDGRAILVNFKARNVLHHFNFKEKCSAVKFSPDGRLFALASGRFLQIWKTPDVNKDRQFAPFVRHRVHAGHFQDITSLTWSQDSRFILTTSKDLSAKIWSVDSEEKNLAATTFNGHRDYVMGAFFSHDQEKIYTVSKDGAVFVWEFTKRPSDDDDNESEDDDKQEEVDISKYSWRITKKHFFYANQAKVKCVTFHPATRLLAVGFTSGEFRLYDLPDFTLIQQLSMGQNPVNTVSVNQTGEWLAFGSSKLGQLLVYEWQSESYILKQQGHFDSTNSLAYSPDGSRVVTASEDGKIKVWDITSGFCLATFEEHTSSVTAVQFAKRGQVMFSSSLDGTVRAWDLIRYRNFRTFTGTERIQFNCLAVDPSGEVVCAGSLDNFDIHVWSVQTGQLLDALSGHEGPVSCLSFSQENSVLASASWDKTIRIWSIFGRSQQVEPIEVYSDVLALSMRPDGKEVAVSTLKGQISIFNIEDAKQVGNIDCRKDIISGRFNQDRFTAKNSERSKFFTTIHYSFDGMAIVAGGNNNSICLYDVPNEVLLKRFIVSRNMALNGTLEFLNSKKMTEAGSLDLIDDAGENSDLEDRIDNSLPGSQRGGDLSTRKMRPEVRVTSVQFSPTANAFAAASTEGLLIYSTNDTILFDPFDLDVDVTPHSTVEALREKQFLNALVMAFRLNEEYLINKVYEAIPIKEIPLVASNIPAIYLPRILKFIGDFAIESQHIEFNLIWIKALLSASGGYINEHKYLFSTAMRSIQRFIVRVAKEVVNTTTDNKYTYRFLVSTDGSMEDGAADDDEVLLKDDADEDNEENEENDVVMESDDE

Molecular target: T1, Utp21p-TAP (S. cerevisiae)
Experiment: co-IP; Utp21p-TAP purified on IgG-coupled magnetic beads from yeast lysate, buffer PM (150 mM KOAc, 20 mM Tris-HCl pH 8.0, 5 mM MgCl2, 1 mM DTT, 0.2% Triton); eluate analysed by western blot; genomic GAL::HA-PWP2 shut off in glucose (8 h, 18 h or 14 h) with a plasmid-borne PWP2 allele or empty plasmid

binding | Binder
binds | B1
binds | B2
